Results: article PMC10963779
Results are given in words; binding and its absence hold for the method and conditions named. For part of these data: Binding seen in cells or lysates may run through a third protein. Some entries that bind do so weakly or less than the wild type.

By UniProt entry, the sequences of proteins in these tests, tags left out. Where a name states a change or a piece, a line headed by the entry shows the natural chain unless it says otherwise.
UniProt P0DTC4: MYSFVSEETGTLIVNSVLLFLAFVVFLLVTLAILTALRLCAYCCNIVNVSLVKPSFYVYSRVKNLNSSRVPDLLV
UniProt O60603: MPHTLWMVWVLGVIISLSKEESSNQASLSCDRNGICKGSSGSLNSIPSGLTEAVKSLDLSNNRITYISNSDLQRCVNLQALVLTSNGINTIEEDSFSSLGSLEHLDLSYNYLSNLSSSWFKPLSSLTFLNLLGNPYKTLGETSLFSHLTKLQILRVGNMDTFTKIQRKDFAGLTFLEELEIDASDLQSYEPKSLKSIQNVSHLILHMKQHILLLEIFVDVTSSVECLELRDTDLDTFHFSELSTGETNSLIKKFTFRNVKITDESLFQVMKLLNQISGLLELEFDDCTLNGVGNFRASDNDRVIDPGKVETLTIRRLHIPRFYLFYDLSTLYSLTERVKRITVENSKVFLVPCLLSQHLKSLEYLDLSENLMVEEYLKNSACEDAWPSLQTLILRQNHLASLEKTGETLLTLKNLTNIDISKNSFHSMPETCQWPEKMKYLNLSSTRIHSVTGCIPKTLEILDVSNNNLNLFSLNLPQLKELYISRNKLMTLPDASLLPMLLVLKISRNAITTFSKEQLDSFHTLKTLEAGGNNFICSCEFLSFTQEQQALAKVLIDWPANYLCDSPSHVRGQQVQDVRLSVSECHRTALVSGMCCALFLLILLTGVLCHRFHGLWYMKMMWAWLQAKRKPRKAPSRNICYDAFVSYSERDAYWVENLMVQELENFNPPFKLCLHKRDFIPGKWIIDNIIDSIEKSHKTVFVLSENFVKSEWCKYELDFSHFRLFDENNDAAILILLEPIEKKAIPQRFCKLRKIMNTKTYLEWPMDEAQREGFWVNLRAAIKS
UniProt O00206: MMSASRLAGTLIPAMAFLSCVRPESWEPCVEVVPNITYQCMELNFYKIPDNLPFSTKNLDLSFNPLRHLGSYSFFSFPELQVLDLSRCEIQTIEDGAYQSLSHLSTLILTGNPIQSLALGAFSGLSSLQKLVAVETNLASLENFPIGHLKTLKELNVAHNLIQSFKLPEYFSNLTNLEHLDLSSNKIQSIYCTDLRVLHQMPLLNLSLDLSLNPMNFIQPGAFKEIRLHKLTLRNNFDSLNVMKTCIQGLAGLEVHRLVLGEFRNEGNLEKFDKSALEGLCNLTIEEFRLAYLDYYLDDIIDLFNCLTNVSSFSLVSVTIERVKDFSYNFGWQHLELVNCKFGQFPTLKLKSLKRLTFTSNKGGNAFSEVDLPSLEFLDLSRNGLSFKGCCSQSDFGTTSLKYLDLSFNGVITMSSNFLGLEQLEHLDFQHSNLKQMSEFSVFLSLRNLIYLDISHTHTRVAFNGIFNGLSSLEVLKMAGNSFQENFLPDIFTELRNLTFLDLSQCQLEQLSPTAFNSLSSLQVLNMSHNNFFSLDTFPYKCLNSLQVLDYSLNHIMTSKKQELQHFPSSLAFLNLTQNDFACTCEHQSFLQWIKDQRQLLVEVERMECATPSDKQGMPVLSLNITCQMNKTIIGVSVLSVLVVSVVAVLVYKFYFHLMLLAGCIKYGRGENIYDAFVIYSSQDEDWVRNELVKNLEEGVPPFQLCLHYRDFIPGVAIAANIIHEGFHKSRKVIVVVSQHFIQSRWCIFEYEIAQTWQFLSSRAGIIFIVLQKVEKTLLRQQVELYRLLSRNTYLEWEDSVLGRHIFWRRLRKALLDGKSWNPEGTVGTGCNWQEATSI
UniProt O14493: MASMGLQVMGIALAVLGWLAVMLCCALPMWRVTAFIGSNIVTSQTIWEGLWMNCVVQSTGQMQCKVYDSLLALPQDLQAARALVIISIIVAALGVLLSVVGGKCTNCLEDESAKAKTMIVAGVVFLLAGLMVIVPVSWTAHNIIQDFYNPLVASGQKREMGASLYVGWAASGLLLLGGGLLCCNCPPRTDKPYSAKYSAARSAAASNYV

B1: occludin (protein, UniProt Q16625 1-522)
chain: MSSRPLESPPPYRPDEFKPNHYAPSNDIYGGEMHVRPMLSQPAYSFYPEDEILHFYKWTSPPGVIRILSMLIIVMCIAIFACVASTLAWDRGYGTSLLGGSVGYPYGGSGFGSYGSGYGYGYGYGYGYGGYTDPRAAKGFMLAMAAFCFIAALVIFVTSVIRSEMSRTRRYYLSVIIVSAILGIMVFIATIVYIMGVNPTAQSSGSLYGSQIYALCNQFYTPAATGLYVDQYLYHYCVVDPQEAIAIVLGFMIIVAFALIIFFAVKTRRKMDRYDKSNILWDKEHIYDEQPPNVEEWVKNVSAGTQDVPSPPSDYVERVDSPMAYSSNGKVNDKRFYPESSYKSTPVPEVVQELPLTSPVDDFRQPRYSSGGNFETPSKRAPAKGRAGRSKRTEQDHYETDYTTGGESCDELEEDWIREYPPITSDQQRQLYKRNFDTGLQEYKSLQSELDEINKELSRLDKELDDYREESEEYMAAADEYNRLKQVKGSADYKSKKNHCKQLKSKLSHIKKMVGDYDRQKT

Each molecule was assayed against GST-tagged SARS-CoV-2 E protein (SARS-CoV-2) (UniProt P0DTC4) (assay: pull-down; both purified).

| Molecule | binding |
| --- | --- |
| His-tagged TLR2 recombinant protein (from UniProt O60603 21-588) (receptor) | binds |
| His-tagged TLR4 recombinant protein (from UniProt O00206 24-631) (receptor) | binds |

These molecules were tested against Recombinant SARS-CoV-2 E Protein (His-tagged, Novoprotein) (SARS-CoV-2) (UniProt P0DTC4) (assay: co-IP; supernatant of airway epithelial cell lysate incubated with 10 μg His-tagged E protein and Anti-His Tag Magnetic Beads at 4 °C overnight; beads washed with ice-cold PBS; Western blotting; only the target purified).

| Molecule | binding |
| --- | --- |
| Toll-like receptor 2 (endogenous) (from UniProt O60603 21-784) | binds |
| Toll-like receptor 4 (endogenous) (from UniProt O00206 24-839) | binds |
| claudin-4 (from UniProt O14493 1-209) | binds |
| B1 | binds |
